Test results published in publication doi:10.1101/2021.11.13.468331 (bioRxiv, 2021).
Where two headings read alike, the source gives them in different places. Results are given in words; binding and its absence hold for the method and conditions named. For some assays here: In cells and extracts the contact can be indirect. Some results given as binding are weak or reduced against the parent protein; the word gives no strength. For some assays here: Sequences can lack the tags named with a protein.

Chains of the proteins cited; added tags and fusions are not shown. Lines headed by an entry give the natural chain unless they say otherwise; changes in a name come on top.
UniProt P56395, whole entry: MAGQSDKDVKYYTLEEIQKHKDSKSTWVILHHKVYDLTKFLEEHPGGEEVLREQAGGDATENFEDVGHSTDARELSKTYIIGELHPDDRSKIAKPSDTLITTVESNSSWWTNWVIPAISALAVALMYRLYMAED

Legend:
[1] = molecular target: T1, SCD1-GFP (stearoyl-CoA desaturase 1 with a C-terminal GFP tag) (mouse) (UniProt P13516); assay: co-IP
T1 sequence: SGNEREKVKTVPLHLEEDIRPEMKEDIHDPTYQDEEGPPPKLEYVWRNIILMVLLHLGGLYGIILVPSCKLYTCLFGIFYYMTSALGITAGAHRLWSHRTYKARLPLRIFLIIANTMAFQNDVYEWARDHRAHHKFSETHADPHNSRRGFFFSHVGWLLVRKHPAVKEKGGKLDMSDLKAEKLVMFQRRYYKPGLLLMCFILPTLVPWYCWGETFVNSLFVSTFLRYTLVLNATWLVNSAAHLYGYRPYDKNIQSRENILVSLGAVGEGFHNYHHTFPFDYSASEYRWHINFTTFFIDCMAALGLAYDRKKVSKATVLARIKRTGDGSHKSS

[2] = molecular target: Myc-cyt b5 (cytochrome b5 with an N-terminal Myc tag) (mouse) (UniProt P56395); assay: co-IP
[3] = molecular target: T1, SCD1-GFP (stearoyl-CoA desaturase 1 with a C-terminal GFP tag) (mouse); assay: co-IP; remark: listed apart in the source
[4] = molecular target: T2, SCD1, purified as an individual protein (mouse) (UniProt P13516); assay: SEC
T2 sequence: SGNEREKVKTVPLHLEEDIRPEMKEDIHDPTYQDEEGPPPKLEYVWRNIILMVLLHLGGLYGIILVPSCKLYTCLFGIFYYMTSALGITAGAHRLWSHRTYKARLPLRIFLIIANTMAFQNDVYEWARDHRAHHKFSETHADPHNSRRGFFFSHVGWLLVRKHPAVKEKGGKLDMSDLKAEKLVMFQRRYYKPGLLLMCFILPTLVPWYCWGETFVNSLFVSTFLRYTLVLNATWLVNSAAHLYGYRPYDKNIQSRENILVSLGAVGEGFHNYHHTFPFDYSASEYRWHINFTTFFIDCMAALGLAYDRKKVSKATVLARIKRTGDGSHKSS

[5] = molecular target: soluble domain of cyt b5 (4 - 89), E49A (mouse) (UniProt P56395); assay: BLI
[6] = molecular target: soluble domain of cyt b5 (4 - 89), E43A (mouse) (UniProt P56395); assay: BLI

Molecule: Myc-cyt b5 (cytochrome b5 with an N-terminal Myc tag) (from UniProt P56395 1-134)
- binding [1]: binds

B1: HA-b5R (cytochrome b5 reductase with an N-terminal HA tag) (enzyme, UniProt Q9DCN2 1-301)
chain: MGAQLSTLSHVVLSPVWFIYSLFMKLFQRSTPAITLENPDIKYPLRLIDKEVISPDTRRFRFALPSPQHILGLPIGQHIYLSTRIDGNLVIRPYTPVSSDDDKGFVDLVVKVYFKDTHPKFPAGGKMSQYLENMKIGDTIEFRGPNGLLVYQGKGKFAIRADKKSNPVVRTVKSVGMIAGGTGITPMLQVIRAVLKDPNDHTVCYLLFANQSEKDILLRPELEELRNEHSARFKLWYTVDKAPDAWDYSQGFVNEEMIRDHLPTPGEEPLILMCGPPPMIQFACLPNLERVGHPKERCFTF
- binding [2]: binds
- binding [3]: binds weakly

B2: soluble domain of b5R (24 - 301) (domain or fragment, UniProt Q9DCN2 24-301)
chain: MKLFQRSTPAITLENPDIKYPLRLIDKEVISPDTRRFRFALPSPQHILGLPIGQHIYLSTRIDGNLVIRPYTPVSSDDDKGFVDLVVKVYFKDTHPKFPAGGKMSQYLENMKIGDTIEFRGPNGLLVYQGKGKFAIRADKKSNPVVRTVKSVGMIAGGTGITPMLQVIRAVLKDPNDHTVCYLLFANQSEKDILLRPELEELRNEHSARFKLWYTVDKAPDAWDYSQGFVNEEMIRDHLPTPGEEPLILMCGPPPMIQFACLPNLERVGHPKERCFTF
- binding [4]: no binding
- binding [5]: binds weakly
- binding [6]: binds weakly

B3: SCD1, purified as an individual protein (enzyme, UniProt P13516 24-355)
chain: SGNEREKVKTVPLHLEEDIRPEMKEDIHDPTYQDEEGPPPKLEYVWRNIILMVLLHLGGLYGIILVPSCKLYTCLFGIFYYMTSALGITAGAHRLWSHRTYKARLPLRIFLIIANTMAFQNDVYEWARDHRAHHKFSETHADPHNSRRGFFFSHVGWLLVRKHPAVKEKGGKLDMSDLKAEKLVMFQRRYYKPGLLLMCFILPTLVPWYCWGETFVNSLFVSTFLRYTLVLNATWLVNSAAHLYGYRPYDKNIQSRENILVSLGAVGEGFHNYHHTFPFDYSASEYRWHINFTTFFIDCMAALGLAYDRKKVSKATVLARIKRTGDGSHKSS
- binding [5]: binds
- binding [6]: binds
